# The supplement of paper PMC8728848
# The list shows a part of the results.
# B1: Thrombomodulin Extracellular (Mus musculus), P15306 (protein)
# chain: MLGIFFLGVLAPASLGLSALAKLQPTGSQCVEHECFALFQGPATFLDASQACQRLQGHLMTVRSSVAADVISLLLSQSSMDLGPWIGLQLPQGCDDPVHLGPLRGFQWVTGDNHTSYSRWARPNDQTAPLCGPLCVTVSTATEAAPGEPAWEEKPCETETQGFLCEFYFTASCRPLTVNTRDPEAAHISSTYNTPFGVSGADFQTLPVGSSAAVEPLGLELVCRAPPGTSEGHWAWEATGAWNCSVENGGCEYLCNRSTNEPRCLCPRDMDLQADGRSCARPVVQSCNELCEHFCVSNAEVPGSYSCMCETGYQLAADGHRCEDVDDCKQGPNPCPQLCVNTKGGFECFCYDGYELVDGECVELLDPCFGSNCEFQCQPVSPTDYRCICAPGFAPKPDEPHKCEMFCNETSCPADCDPNSPTVCECPEGFILDEGSVCTDIDECSQGECFTSECRNFPGSYECICGPDTALAGQISKDCDPIPVREDTKEEEGSGEPPVSPTPGSPTGPPSARPVHSGVLIGISIASLSLVVALLALLCHLRKKQGAARAELEYKCASSAKEVVLQHVRTDRTLQKF
# What was measured:
# Experiment in all cases: glycan array binding signal (z-score within array); higher = stronger binding
# Conditions in all cases: glycan notation: IUPAC condensed, linker removed
# [1] = target: Gal(a1-3)Gal(b1-4)GlcNAc(b1-2)Man
# Procedure, shortened: (§1)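 The binding signal is a Z-score computed within each array. Data were drawn from 3228 arrays in the Consortium for Functional Glycomics database, restricted to those with a known protein sequence. Scores were averaged over arrays of the same protein sequence at different concentrations or buffers, and over linkers, and negative values can be taken as non-binding.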
# [2] = target: Gal(a1-3)Gal(b1-4)GlcNAc(b1-2)Man(a1-3)[Gal(a1-3)Gal(b1-4)GlcNAc(b1-2)Man(a1-6)]Man(b1-4)GlcNAc(b1-4)GlcNAc
# Procedure, shortened: as §1
# [3] = target: Gal(a1-3)Gal(b1-4)GlcNAc(b1-3)GalNAc
# Procedure, shortened: as §1
# [4] = target: Gal(a1-3)Gal(b1-4)GlcNAc(b1-6)GalNAc
# Procedure, shortened: as §1
# [5] = target: Gal(a1-3)Gal(b1-4)[Fuc(a1-3)]GlcNAc
# Procedure, shortened: as §1
# [6] = target: Gal(a1-3)Gal(b1-4)[Fuc(a1-3)]GlcNAc(b1-2)Man(a1-3)[Gal(a1-3)Gal(b1-4)[Fuc(a1-3)]GlcNAc(b1-2)Man(a1-6)]Man(b1-4)GlcNAc(b1-4)GlcNAc
# Procedure, shortened: as §1
# Gal(a1-3)GalNAc = target: Gal(a1-3)GalNAc
# Procedure, shortened: as §1
# [7] = target: Gal(a1-3)[Gal(a1-4)]Gal(b1-4)GlcNAc
# Procedure, shortened: as §1
# [8] = target: Gal(a1-4)Gal(b1-3)GlcNAc(b1-2)Man(a1-3)[Gal(a1-4)Gal(b1-3)GlcNAc(b1-2)Man(a1-6)]Man(b1-4)GlcNAc(b1-4)GlcNAc
# Procedure, shortened: as §1
# Gal(a1-4)Gal(b1-4)Glc = target: Gal(a1-4)Gal(b1-4)Glc
# Procedure, shortened: as §1
# Gal(a1-4)Gal(b1-4)GlcNAc = target: Gal(a1-4)Gal(b1-4)GlcNAc
# Procedure, shortened: as §1
# [9] = target: Gal(a1-4)Gal(b1-4)GlcNAc(b1-2)Man(a1-3)[Gal(a1-4)Gal(b1-4)GlcNAc(b1-2)Man(a1-6)]Man(b1-4)GlcNAc(b1-4)GlcNAc
# Procedure, shortened: as §1
# [10] = target: Gal(a1-4)Gal(b1-4)GlcNAc(b1-3)Gal(b1-4)Glc
# Procedure, shortened: as §1
# Gal(a1-4)GlcNAc = target: Gal(a1-4)GlcNAc
# Procedure, shortened: as §1
# Gal(a1-6)Glc = target: Gal(a1-6)Glc
# Procedure, shortened: as §1
# Gal(b1-2)Gal = target: Gal(b1-2)Gal
# Procedure, shortened: as §1
# Gal(b1-3)Gal = target: Gal(b1-3)Gal
# Procedure, shortened: as §1
# Gal(b1-3)Gal(b1-4)GlcNAc = target: Gal(b1-3)Gal(b1-4)GlcNAc
# Procedure, shortened: as §1
# Gal(b1-3)GalNAc = target: Gal(b1-3)GalNAc
# Procedure, shortened: as §1
# [11] = target: Gal(b1-3)GalNAc(a1-3)[Fuc(a1-2)]Gal(b1-4)Glc
# Procedure, shortened: as §1
# [12] = target: Gal(b1-3)GalNAc(a1-3)[Fuc(a1-2)]Gal(b1-4)GlcNAc
# Procedure, shortened: as §1
# Gal(b1-3)GalNAc(b1-3)Gal = target: Gal(b1-3)GalNAc(b1-3)Gal
# Procedure, shortened: as §1
# [13] = target: Gal(b1-3)GalNAc(b1-3)Gal(a1-4)Gal(b1-4)Glc
# Procedure, shortened: as §1
# [14] = target: Gal(b1-3)GalNAc(b1-4)Gal(b1-4)Glc
# Procedure, shortened: as §1
# [15] = target: Gal(b1-3)GalNAc(b1-4)[Neu5Ac(a2-3)]Gal(b1-4)Glc
# Procedure, shortened: as §1
# Gal(b1-3)GlcNAc = target: Gal(b1-3)GlcNAc
# Procedure, shortened: as §1
# [16] = target: Gal(b1-3)GlcNAc(a1-3)Gal(b1-4)GlcNAc
# Procedure, shortened: as §1
# [17] = target: Gal(b1-3)GlcNAc(a1-6)Gal(b1-4)GlcNAc
# Procedure, shortened: as §1
# Gal(b1-3)GlcNAc(b1-2)Man = target: Gal(b1-3)GlcNAc(b1-2)Man
# Procedure, shortened: as §1
# [18] = target: Gal(b1-3)GlcNAc(b1-2)Man(a1-3)[Gal(b1-3)GlcNAc(b1-2)Man(a1-6)]Man(b1-4)GlcNAc(b1-4)GlcNAc
# Procedure, shortened: as §1
binder,measurement,setting,value
B1,glycan array binding signal (z-score),[1],-2.66
same,glycan array binding signal (z-score),[2],-0.154
same,glycan array binding signal (z-score),[3],-1.21
same,glycan array binding signal (z-score),[4],-0.878
same,glycan array binding signal (z-score),[5],1.11
same,glycan array binding signal (z-score),[6],1.59
same,glycan array binding signal (z-score),Gal(a1-3)GalNAc,-0.939
same,glycan array binding signal (z-score),[7],-1.16
same,glycan array binding signal (z-score),[8],-0.918
same,glycan array binding signal (z-score),Gal(a1-4)Gal(b1-4)Glc,1.19
same,glycan array binding signal (z-score),Gal(a1-4)Gal(b1-4)GlcNAc,-0.239
same,glycan array binding signal (z-score),[9],1.73
same,glycan array binding signal (z-score),[10],-0.341
same,glycan array binding signal (z-score),Gal(a1-4)GlcNAc,-1.23
same,glycan array binding signal (z-score),Gal(a1-6)Glc,-1.17
same,glycan array binding signal (z-score),Gal(b1-2)Gal,1.03
same,glycan array binding signal (z-score),Gal(b1-3)Gal,-0.287
same,glycan array binding signal (z-score),Gal(b1-3)Gal(b1-4)GlcNAc,-0.77
same,glycan array binding signal (z-score),Gal(b1-3)GalNAc,-0.155
same,glycan array binding signal (z-score),[11],0.62
same,glycan array binding signal (z-score),[12],-1.05
same,glycan array binding signal (z-score),Gal(b1-3)GalNAc(b1-3)Gal,0.377
same,glycan array binding signal (z-score),[13],-0.43
same,glycan array binding signal (z-score),[14],0.354
same,glycan array binding signal (z-score),[15],-0.458
same,glycan array binding signal (z-score),Gal(b1-3)GlcNAc,-0.403
same,glycan array binding signal (z-score),[16],0.457
same,glycan array binding signal (z-score),[17],0.328
same,glycan array binding signal (z-score),Gal(b1-3)GlcNAc(b1-2)Man,-0.824
same,glycan array binding signal (z-score),[18],1.49

# 2 entries from above, as tab-separated lines.
binder	measurement	setting	value
B1	glycan array binding signal (z-score)	[5]	1.11
same	glycan array binding signal (z-score)	Gal(b1-2)Gal	1.03
